Measured values from US20200297015A1, “TRYPTOPHAN DERIVATIVES AS SWEETENERS” (CHROMOCELL CORPORATION, priority 2017, published 2020).

System: perception of sweet taste in humans
Assay: Descriptive Analysis (DA) sensory evaluation by trained panel, aqueous matrix
Type: in vivo, human
Details: 1500 ppm Compound 5 vs 500 ppm Rebaudioside M
Protocol: The effect of the test compound on the perception of sweet taste in an aqueous matrix was evaluated using a descriptive analysis methodology with a group of trained panelists, as follows.
Preparation of Samples for Sensory Taste Tests: • Control Sample: 500 ppm Rebaudioside M • Variant Sample: 1500 ppm Compound 5 Samples for the descriptive analysis taste test were prepared by dissolving, both the control and variant samples, directly in water at the desired test concentrations.
The taste test panelists used in Example I were selected using a sensory acuity screening program and then trained in descriptive analysis taste testing. Candidate panelists were recruited, with prescreening and personal interviews, and were assessed for their ability to detect, recognize and differentiate basic taste attributes or mixtures thereof as part of a standardized acuity test. These candidate panelists were also assessed for their innate ability to identify flavors, and to rank on intensity scales. Other senses such as smell and vision were also included as part of the assessment. Candidates also were screened for their ability to use the language to describe and articulate ideas.
The method was performed as a double blinded, randomized test, where trained Descriptive Analysis taste panelists (n≥12) profiled the maximum intensity perceived at 18 seconds, of the control sample and the variant sample for the following 3 attributes; sweet, bitter and sweet appearance time. In addition to the maximum intensity, the panelists continued to assess sweet and bitter intensity (at 1 min, 1.5 min, 2 min, and 3 min), to generate a discontinuous time scale Intensity profile (TSI) of sweet and bitter percepts to gain an understanding of the taste profile of the control and variant samples. Each panelist scored sweetness intensity on a 15 cm scale, with the control and variant sample being determined to be iso-sweet by ANOVA at 18 seconds.

SMILES: Cc1ccc2[nH]cc(C[C@@H](N)C(=O)O)c2c1 [Compound 5, (R)-2-amino-3-(5-methyl-1H-indol-3-yl)propanoic acid]
- Significantly Different? (by ANOVA) (Bitter @ 18 sec): YES (bitter
- Significantly Different? (by ANOVA) (Bitter @ 1 min 30 s): YES (bitter linger
- Significantly Different? (by ANOVA) (Bitter @ 1 min): YES (bitter linger
- Significantly Different? (by ANOVA) (Bitter @2 min): YES (bitter linger
- Significantly Different? (by ANOVA) (Bitter @3 min): YES (bitter linger
- Significantly Different? (by ANOVA) (Sweet @ 18 sec): NO (isosweet)
- Significantly Different? (by ANOVA) (Sweet @ 1 min 30 s): YES (sweet linger
- Significantly Different? (by ANOVA) (Sweet @ 1 min): YES (sweet linger
- Significantly Different? (by ANOVA) (Sweet @ 2 min): NO (lower intensity)
- Significantly Different? (by ANOVA) (Sweet AT): YES (sweet AT
